PubChem BioAssay AID686938 – Drosophila RNAi Screening Center, 2013
In all, the deposit lists about 23,000 reagents; shown is an unselected part of those with a known target gene and a result. Of all reagents, 75 (0.33%) were called active. 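Raw plate signals without normalisation; calls rest on plate z-scores that were not deposited; ratio present for only 364 wells.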 Names joined by + are all predicted targets of the reagent. Not stated in the record: the dose of the treatment.

- Screen: 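Fly genes required for calcium entry once internal stores are emptied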 (primary screen)
- System: Drosophila S2R+ cells
- Reagent: long dsRNA against Drosophila genes, about 0.25 µg dsRNA per well, roughly 10,000 cells
- Timing: 5 days of knock-down before the calcium assay
- Conditions: thapsigargin (SERCA pump blocker) to empty calcium stores; entry signal taken 4 min after adding it
- Measurement: 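Duplicate raw fluo-4 intensities per well from a plate reader, at rest and four minutes after thapsigargin emptied calcium stores; entry-to-rest ratio filled for only some wells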
- Scale: calcium entry signal: higher = stronger calcium signal after store depletion; entry to resting ratio: higher = more calcium entry relative to resting level; resting calcium signal: higher = higher resting calcium signal
- Hit rule: 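Hit if the duplicate-averaged plate z-score for entry over resting signal is under −3; wells with weak total dye signal (Fmax z < −2) or more than 5 off-targets removed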
- Meaning of the calls: active = strongly reduced calcium entry; inactive = no strong reduction

gene,DRSC id,"calcium entry signal, replicate 1 (fluorescence units)","calcium entry signal, replicate 2 (fluorescence units)",entry to resting ratio,"resting calcium signal, replicate 1 (fluorescence units)","resting calcium signal, replicate 2 (fluorescence units)",outcome
bcn92,DRSC18741,6.59e7,5.80e7,2.2,2.93e7,2.12e7,inactive
htt (huntingtin),DRSC16970,4.04e7,5.57e7,,1.99e7,2.52e7,inactive
Ire1 (Inositol-requiring enzyme-1),DRSC15606,3.87e7,4.32e7,,7.16e7,1.83e7,inactive
Ugt35E1 (UDP-glycosyltransferase family 35 member E1),DRSC15193,2.59e7,2.23e7,,1.25e7,1.29e7,inactive
Clk (Clock),DRSC11117,3.01e7,4.65e7,,1.52e7,2.17e7,inactive
CG31668,DRSC22584,3.79e7,3.69e7,,1.97e7,1.56e7,inactive
Con (Connectin),DRSC08652,4.89e7,3.54e7,,3.04e7,1.48e7,inactive
CG9150,DRSC03148,3.71e7,3.34e7,,1.81e7,1.61e7,inactive
CG17564,DRSC02626,4.47e7,5.03e7,,2.03e7,2.01e7,inactive
CG12523,DRSC09895,2.04e7,4.01e7,,1.09e7,1.87e7,inactive
CG4650,DRSC02767,3.25e7,2.11e7,,1.59e7,1.04e7,inactive
Herc4 (HECT and RLD domain containing E3 ubiquitin ligase 4),DRSC08631,2.86e7,3.84e7,,1.34e7,1.65e7,inactive
tfc (triforce),DRSC07953,3.77e7,3.42e7,,1.81e7,1.62e7,inactive
tfc (triforce),DRSC07954,4.20e7,4.07e7,,1.94e7,1.67e7,inactive
tfc (triforce),DRSC08626,3.12e7,2.94e7,,1.42e7,1.62e7,inactive
tfc (triforce),DRSC21704,4.27e7,3.36e7,,2.16e7,1.56e7,inactive
eIF3d2 (eukaryotic translation initiation factor 3 subunit d2),DRSC15651,4.22e7,5.58e7,,1.69e7,2.24e7,inactive
egr (eiger),DRSC06233,3.19e7,3.46e7,,1.60e7,1.69e7,inactive
Kap3 (Kinesin associated protein 3),DRSC19426,3.41e7,3.04e7,,1.65e7,1.45e7,inactive
CG42394 + CG6567,DRSC12821,2.93e7,4.41e7,,1.45e7,1.80e7,inactive
CG31915,DRSC03000,2.20e7,2.28e7,,1.05e7,1.00e7,inactive
CG34203,DRSC03855,3.43e7,6.09e7,,1.54e7,2.57e7,inactive
Prosalpha6 (Proteasome alpha6 subunit),DRSC03401,1.88e7,2.15e7,,1.43e7,1.35e7,inactive
Rbf2 (Retinoblastoma-family protein 2),DRSC16816,3.26e7,6.65e7,,1.59e7,5.83e7,inactive
CG16721,DRSC18113,2.64e7,2.87e7,,1.26e7,1.35e7,inactive
glob1 (globin 1),DRSC16959,1.92e7,2.03e7,,1.03e7,9.37e6,inactive
Ttc30 (Tetratricopeptide repeat domain 30),DRSC02818,5.16e7,3.00e7,,2.27e7,1.59e7,inactive
CG8136,DRSC16385,4.80e7,3.59e7,,2.24e7,1.76e7,inactive
Pex3 (Peroxin 3),DRSC10731,2.99e7,3.86e7,,1.41e7,2.53e7,inactive
"Alg11 (ALG11, alpha-1,2-mannosyltransferase)",DRSC11647,2.00e7,2.66e7,,9.17e6,1.86e7,inactive
l(3)87Df (lethal (3) 87Df),DRSC16982,2.54e7,4.54e7,,1.20e7,5.98e7,inactive
CG10621,DRSC02078,4.78e7,5.36e7,,2.50e7,2.14e7,inactive
Uev1A (Ubiquitin-conjugating enzyme variant 1A),DRSC09763,4.91e7,4.94e7,,3.14e7,2.01e7,inactive
Ufc1 (Ubiquitin-fold modifier conjugating enzyme 1),DRSC07156,3.38e7,2.38e7,,1.59e7,1.25e7,inactive
Idua (alpha-L-iduronidase),DRSC02941,4.65e7,,,2.23e7,,inactive
CG31287,DRSC13138,3.42e7,4.06e7,,1.69e7,1.83e7,inactive
CG13171,DRSC06299,2.77e7,3.77e7,,1.42e7,1.66e7,inactive
nej (nejire),DRSC18006,2.74e7,3.46e7,,1.58e7,1.91e7,inactive
nej (nejire),DRSC18801,2.31e7,2.42e7,,1.21e7,1.32e7,inactive
CG3918,DRSC18331,2.28e7,2.06e7,,1.24e7,1.17e7,inactive
CG3918,DRSC23159,3.03e7,4.59e7,,1.47e7,1.86e7,inactive

3 entries already listed, arranged by “resting calcium signal, replicate 2 (fluorescence units)”, highest first:
gene,DRSC id,"calcium entry signal, replicate 1 (fluorescence units)","calcium entry signal, replicate 2 (fluorescence units)",entry to resting ratio,"resting calcium signal, replicate 1 (fluorescence units)","resting calcium signal, replicate 2 (fluorescence units)",outcome
Pex3 (Peroxin 3),DRSC10731,2.99e7,3.86e7,,1.41e7,2.53e7,inactive
"Alg11 (ALG11, alpha-1,2-mannosyltransferase)",DRSC11647,2.00e7,2.66e7,,9.17e6,1.86e7,inactive
CG8136,DRSC16385,4.80e7,3.59e7,,2.24e7,1.76e7,inactive
